## Screening data, single-dose tests

By UniProt entry, the sequences of proteins in these tests, tags left out. Residues count along the entry.
UniProt Q8IDJ8, 1-583: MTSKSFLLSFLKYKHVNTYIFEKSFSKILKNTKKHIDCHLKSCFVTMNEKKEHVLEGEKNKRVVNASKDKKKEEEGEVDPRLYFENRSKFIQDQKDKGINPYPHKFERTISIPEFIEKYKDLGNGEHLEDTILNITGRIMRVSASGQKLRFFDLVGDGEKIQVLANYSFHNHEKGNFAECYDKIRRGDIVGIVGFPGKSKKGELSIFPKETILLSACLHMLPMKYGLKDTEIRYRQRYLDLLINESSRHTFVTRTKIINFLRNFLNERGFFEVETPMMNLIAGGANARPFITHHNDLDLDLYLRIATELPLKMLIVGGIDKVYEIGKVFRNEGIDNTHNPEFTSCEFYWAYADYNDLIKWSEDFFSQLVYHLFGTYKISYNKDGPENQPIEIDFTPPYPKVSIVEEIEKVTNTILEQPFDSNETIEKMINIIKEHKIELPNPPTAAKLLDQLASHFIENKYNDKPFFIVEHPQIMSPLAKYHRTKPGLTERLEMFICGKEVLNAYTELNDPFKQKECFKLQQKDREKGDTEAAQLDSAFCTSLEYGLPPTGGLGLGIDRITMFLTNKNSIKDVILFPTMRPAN
UniProt I6X8D2, whole entry: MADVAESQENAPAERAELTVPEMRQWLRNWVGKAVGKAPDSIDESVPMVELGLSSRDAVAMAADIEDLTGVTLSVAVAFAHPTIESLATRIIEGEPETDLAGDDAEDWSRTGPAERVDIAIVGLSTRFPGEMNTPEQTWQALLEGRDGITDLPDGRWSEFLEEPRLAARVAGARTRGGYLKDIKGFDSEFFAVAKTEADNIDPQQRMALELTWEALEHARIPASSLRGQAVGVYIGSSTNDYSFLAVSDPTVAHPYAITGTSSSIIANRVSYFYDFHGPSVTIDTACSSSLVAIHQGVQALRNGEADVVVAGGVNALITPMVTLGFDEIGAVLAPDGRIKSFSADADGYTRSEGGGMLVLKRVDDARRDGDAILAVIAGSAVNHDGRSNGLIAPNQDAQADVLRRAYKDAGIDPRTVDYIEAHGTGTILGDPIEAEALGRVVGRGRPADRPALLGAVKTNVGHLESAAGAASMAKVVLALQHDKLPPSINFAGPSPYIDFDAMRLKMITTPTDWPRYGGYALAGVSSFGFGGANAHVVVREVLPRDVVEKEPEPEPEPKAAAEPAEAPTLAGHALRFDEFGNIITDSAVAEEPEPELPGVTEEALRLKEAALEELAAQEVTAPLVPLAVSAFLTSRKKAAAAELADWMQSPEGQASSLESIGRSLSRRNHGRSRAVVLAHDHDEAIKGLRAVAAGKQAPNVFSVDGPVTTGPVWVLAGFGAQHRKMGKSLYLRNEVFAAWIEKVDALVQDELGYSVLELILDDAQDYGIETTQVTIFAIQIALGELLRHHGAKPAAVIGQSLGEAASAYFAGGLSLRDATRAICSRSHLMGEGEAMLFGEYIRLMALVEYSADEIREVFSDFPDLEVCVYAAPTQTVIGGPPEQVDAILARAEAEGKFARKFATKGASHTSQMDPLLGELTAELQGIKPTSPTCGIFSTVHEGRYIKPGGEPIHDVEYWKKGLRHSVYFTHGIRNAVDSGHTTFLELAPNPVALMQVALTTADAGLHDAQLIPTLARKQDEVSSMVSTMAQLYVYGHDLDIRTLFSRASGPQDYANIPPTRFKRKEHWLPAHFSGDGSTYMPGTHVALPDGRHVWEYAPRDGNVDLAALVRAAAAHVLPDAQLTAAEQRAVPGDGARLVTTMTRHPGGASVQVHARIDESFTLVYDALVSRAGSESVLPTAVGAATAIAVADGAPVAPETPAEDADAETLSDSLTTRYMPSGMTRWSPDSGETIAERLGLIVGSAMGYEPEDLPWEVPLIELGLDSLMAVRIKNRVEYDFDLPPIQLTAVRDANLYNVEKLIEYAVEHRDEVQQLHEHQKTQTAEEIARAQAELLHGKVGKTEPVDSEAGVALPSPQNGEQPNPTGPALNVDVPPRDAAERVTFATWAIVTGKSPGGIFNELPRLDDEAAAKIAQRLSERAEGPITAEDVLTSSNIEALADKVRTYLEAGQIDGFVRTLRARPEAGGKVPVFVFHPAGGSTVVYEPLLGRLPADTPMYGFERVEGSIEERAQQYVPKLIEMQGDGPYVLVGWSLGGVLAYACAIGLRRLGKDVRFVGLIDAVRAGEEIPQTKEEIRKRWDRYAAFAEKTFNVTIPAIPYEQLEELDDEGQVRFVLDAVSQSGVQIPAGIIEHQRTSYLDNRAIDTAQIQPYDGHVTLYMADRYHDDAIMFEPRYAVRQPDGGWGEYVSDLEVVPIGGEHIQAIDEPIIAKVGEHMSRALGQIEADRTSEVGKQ
UniProt P9WNZ1, whole entry: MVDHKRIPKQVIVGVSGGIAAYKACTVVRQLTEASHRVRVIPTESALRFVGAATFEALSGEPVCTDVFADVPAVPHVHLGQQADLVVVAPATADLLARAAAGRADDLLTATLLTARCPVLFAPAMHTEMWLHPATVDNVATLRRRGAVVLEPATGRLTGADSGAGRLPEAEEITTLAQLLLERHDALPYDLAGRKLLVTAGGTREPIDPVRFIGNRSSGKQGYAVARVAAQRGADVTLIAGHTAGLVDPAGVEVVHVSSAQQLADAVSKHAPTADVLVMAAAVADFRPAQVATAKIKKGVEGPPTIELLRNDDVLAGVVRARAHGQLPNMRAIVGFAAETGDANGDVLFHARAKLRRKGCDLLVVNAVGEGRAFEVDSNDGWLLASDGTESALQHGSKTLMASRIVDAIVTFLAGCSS
UniProt Q4DA54, 1-478: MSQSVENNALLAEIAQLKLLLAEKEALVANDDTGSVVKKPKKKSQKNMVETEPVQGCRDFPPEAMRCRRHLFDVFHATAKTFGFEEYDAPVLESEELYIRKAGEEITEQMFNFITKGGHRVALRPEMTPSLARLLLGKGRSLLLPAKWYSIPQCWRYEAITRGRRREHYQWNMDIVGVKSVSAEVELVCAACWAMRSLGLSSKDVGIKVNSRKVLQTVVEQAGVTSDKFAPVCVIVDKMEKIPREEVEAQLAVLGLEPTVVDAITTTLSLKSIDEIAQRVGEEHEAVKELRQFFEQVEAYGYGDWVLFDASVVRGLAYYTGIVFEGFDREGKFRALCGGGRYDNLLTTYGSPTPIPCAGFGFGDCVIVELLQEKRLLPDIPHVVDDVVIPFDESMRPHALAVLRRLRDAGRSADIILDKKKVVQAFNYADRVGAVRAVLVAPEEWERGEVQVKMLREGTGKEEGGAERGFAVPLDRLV
UniProt P9WFT3, whole entry: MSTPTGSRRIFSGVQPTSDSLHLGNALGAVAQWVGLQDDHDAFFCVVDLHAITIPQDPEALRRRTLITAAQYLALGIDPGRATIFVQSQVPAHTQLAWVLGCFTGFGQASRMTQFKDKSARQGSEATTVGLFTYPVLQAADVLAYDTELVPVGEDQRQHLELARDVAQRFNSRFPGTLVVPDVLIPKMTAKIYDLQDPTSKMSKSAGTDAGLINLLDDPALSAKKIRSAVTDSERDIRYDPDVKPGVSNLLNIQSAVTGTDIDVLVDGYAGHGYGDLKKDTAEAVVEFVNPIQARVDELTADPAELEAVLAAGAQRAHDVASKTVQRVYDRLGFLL
UniProt P9WPC5, whole entry: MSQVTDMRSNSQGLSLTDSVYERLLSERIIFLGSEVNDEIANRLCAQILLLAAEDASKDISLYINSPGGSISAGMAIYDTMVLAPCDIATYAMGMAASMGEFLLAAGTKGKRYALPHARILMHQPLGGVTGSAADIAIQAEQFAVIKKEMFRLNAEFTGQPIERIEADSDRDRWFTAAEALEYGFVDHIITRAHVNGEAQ
UniProt P9WPC3, whole entry partner: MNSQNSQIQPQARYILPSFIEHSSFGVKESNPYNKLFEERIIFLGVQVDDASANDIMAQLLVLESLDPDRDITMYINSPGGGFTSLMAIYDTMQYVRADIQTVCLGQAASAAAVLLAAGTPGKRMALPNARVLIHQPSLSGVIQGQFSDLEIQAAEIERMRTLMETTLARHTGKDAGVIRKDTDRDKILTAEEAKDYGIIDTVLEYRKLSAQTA

PfKRS1: 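Lysine-tRNA ligase, Plasmodium falciparum 3D7 (UniProt Q8IDJ8). Enzyme assay of the cytosolic lysyl-tRNA synthetase in 384-well plates, read by luminescence. Tested at 30 µM. Direction is inferred from only a few compounds that gave an IC50; most scored high, so higher reads as stronger inhibition. About 69,000 compounds were tested under these conditions; 0.071% (about 49) showed 50% or more at least once.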
Pks13 thioesterase: 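Enzyme assay of the thioesterase domain of polyketide synthase 13; the read-out is not stated. Target: Polyketide synthase Pks13, Mycobacterium tuberculosis (UniProt I6X8D2). Tested at 30 µM. Higher reads as stronger inhibition (inferred from which compounds were picked for retests). Size under these conditions: about 67,000 compounds, about 300 of them at 50% or above in at least one test.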
CoaBC: 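Coenzyme A biosynthesis protein CoaBC, Mycobacterium tuberculosis (UniProt P9WNZ1). Enzyme assay of CoaBC with a phosphate dye (Biomol Green) read at 650 nm. Concentration: 30 µM. Higher reads as stronger inhibition, judged from the few compounds that gave an IC50. Most strong results did not repeat in a second test. Size under these conditions: about 67,000 compounds, about 40 of them at 50% or above in at least one test.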
TcHisRS: 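Enzyme assay of histidyl-tRNA synthetase; the read-out is not stated. Target: Histidine-tRNA ligase, Trypanosoma cruzi CL Brener (UniProt Q4DA54). Concentration: 30 µM. Higher reads as stronger inhibition (inferred: compounds with an IC50 in retests scored well above the rest). Size under these conditions: about 69,000 compounds, about 31 of them at 50% or above in at least one test.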
MtTrpRS: 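Tryptophan-tRNA ligase, Mycobacterium tuberculosis (UniProt P9WFT3). Enzyme assay of tryptophanyl-tRNA synthetase; the read-out is not stated. Concentration: 10 µM. Direction is not recorded; retested compounds ran higher, which suggests that high means inhibition. Of about 65,000 compounds tested this way, about 64 (0.098%) reached 50% or more in at least one test.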
ClpP1P2: 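ClpP1P2, Mycobacterium tuberculosis (UniProt P9WPC5 and UniProt P9WPC3). Protease assay of ClpP1P2, read by the AMC dye that it sets free. Tested at 50 µM. Higher reads as stronger inhibition, judged from the few compounds that gave an IC50. Most other retested compounds had strongly negative values. Of about 69,000 compounds tested this way, about 10 (0.015%) reached 50% or more in at least one test.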

The filed quantity is “Percent Effect” (%). How 0% and 100% were set is not recorded. Most values in the screen are low, and negative values occur. This is an unselected part of the compounds tested. A dash means the value is not listed here; it may have been measured.

| # | SMILES | PfKRS1 | Pks13 thioesterase | CoaBC | TcHisRS | MtTrpRS | ClpP1P2 |
|---|---|---|---|---|---|---|---|
| 1 | `COCCOc1ccc(-c2noc([C@@H]3CCCN3)n2)cn1` | 2.238 | -18.08 | 9.255 | -3.96 | 3.087 | -1.699 |
| 2 | `CCC(CO)N(Cc1cccnc1)C(=O)c1ccc(C)[nH]c1=O` (stereo unspecified) | 9.779 | 1.106 | -3.924 | 9.756 | 0.5439 | -12.64 |
| 3 | `O=C1COc2cc(OC[C@@H]3CCCN4CCCC[C@H]34)ccc21` | -5.946 | -5.679 | -8.705 | 18.4 | -1.424 | -1.34 |
| 4 | `N#Cc1ccc(C(=O)N(Cc2ccncc2)C2CC2)cc1` | 5.837 | -0.4867 | 1.574 | -11.88 | 0.1555 | -4.092 |
| 5 | `CCN(CC)Cc1cc(=O)n2c(n1)CN(C(=O)c1ccc[nH]1)CCC2` | 1.106 | -3.368 | 2.599 | 1.508 | - | -0.4221 |
| 6 | `O=C(NCc1cn2c(n1)CN(Cc1cccc(F)c1)CC2)C1CCC1` | 4.019 | 3.656 | 3.257 | 2.941 | -1.953 | -24.35 |
| 7 | `Cc1ncsc1CN1C[C@@H](OCC(=O)N(C)C)[C@H]2OCCC[C@H]21` | -0.2214 | -22.84 | 7.009 | 2.174 | -5.862 | -2.886 |
| 8 | `Cn1cc([C@@H]2CN(S(=O)(=O)c3ccccc3F)C[C@H]2N)c2ccncc21` | -1.48 | -36.54 | -1.051 | 3.03 | 4.838 | -19.26 |
| 9 | `Cc1ncsc1C(=O)N(Cc1cccnc1)C1CC1` | 2.344 | -7.763 | 5.181 | 2.29 | -4.232 | -1.157 |
| 10 | `CCNC(=O)CN(CC)C(=O)c1csc(Cc2ccccc2F)n1` | 1.42 | -9.752 | 5.502 | 9.045 | -0.4542 | -0.8551 |
| 11 | `Cc1nn(C)c(C)c1C1CCCN1Cc1nc2ccccc2n1C` (stereo unspecified) | -1.099 | -15.94 | -4.826 | 7.123 | -0.3975 | -16.15 |
| 12 | `CCC1=NC(SCC(=O)c2ccc(OC)cc2)c2cc(CC)sc2N1` (stereo unspecified) | -1.954 | -8.047 | -4.619 | -46.96 | -2.979 | 12.27 |
| 13 | `O=C(CSc1ccc2c(c1)OCCO2)NS(=O)(=O)c1ccccc1F` | 2.776 | -9.997 | 0.5917 | 2.116 | -0.4617 | -7.681 |
| 14 | `Cc1nc(C2CCN(C(=O)c3ccnn3C)CC2)c2sccn12` | 1.963 | -1.186 | 2.906 | 12.22 | - | 7.361 |
| 15 | `CCc1nc(N)nc(N2CCCC3(CN(C)C(=O)O3)C2)c1C` (stereo unspecified) | -1.158 | -42.78 | 8.932 | 2.186 | -8.186 | -11.14 |
| 16 | `Cc1cnc(N2Cc3nccn3CC(Cn3ncccc3=O)C2)nc1` (stereo unspecified) | 2.571 | -17.86 | 2.343 | 9.524 | -5.408 | -14.5 |
| 17 | `Cc1nc(C)n(CC2CCCN(CC(=O)N3CCCC3)C2)n1` (stereo unspecified) | 2.005 | -6.86 | 2.35 | 8.455 | -3.386 | -50.68 |
| 18 | `CN1CCC(c2nnc(CN3CCCC3)n2C2CC2)CC1` | -4.239 | -26.09 | -10.69 | 5.435 | -0.4036 | 7.622 |
| 19 | `COc1nccc(N2CC[C@H](N3CCOCC3)[C@H](CCCO)C2)c1C#N` | 4.383 | -11.22 | 1.392 | 2.646 | 3.485 | 4.215 |
| 20 | `CN(C)c1nccc(CNC(=O)NCc2ccco2)n1` | 4.047 | -22.08 | -2.195 | 7.792 | -2.547 | 4.923 |
| 21 | `COC(=O)c1cccn1C1CCN(C(=O)c2cc(F)ccc2C)CC1` | -0.1684 | -10.34 | 2.968 | 2.299 | -4.576 | -10.94 |
| 22 | `CC(C)c1nccn1C1CCCN(C(=O)C2=NN(C)C(=O)CC2)C1` (stereo unspecified) | -0.614 | -1.998 | 1.281 | 3.198 | -8.333 | -26.74 |
| 23 | `Cc1noc(CN2C[C@H]3CC[C@@H]2CN(C2Cc4ccccc4C2)C3)n1` | 9.102 | -1.424 | -44.8 | 13.6 | 5.946 | -5.411 |
| 24 | `CCS(=O)(=O)CCN1CCC(N(C)Cc2noc(C(C)C)n2)C1` (stereo unspecified) | 10.53 | -4.577 | 0.7905 | 2.662 | 3.742 | 3.569 |
| 25 | `CCN1CCN(S(=O)(=O)N2CCc3ccccc3C2)[C@H]2CS(=O)(=O)C[C@H]21` | 1.913 | -35.4 | - | 1.316 | -2.683 | 2.31 |
| 26 | `O=C(c1n[nH]c(=O)c2ccccc12)N1CCCCC1c1ccn[nH]1` (stereo unspecified) | 3.077 | -33.59 | -1.111 | 4.865 | 2.592 | 1.738 |
| 27 | `CNC(=O)CN(C)C(=O)c1cc2ccccc2cc1OC` | 3.54 | -1.047 | 1.013 | -1.22 | -1.159 | -8.834 |
| 28 | `Cc1ccc(N2CCC3(CC2)CC(OCC(C)C)C3)nn1` | 3.43 | -0.647 | 2.463 | 9.278 | -6.623 | -12.04 |
| 29 | `CC(C)CN1CCc2[nH]cnc2C12CCN(C(=O)c1cnn(C)c1)CC2` | 2.866 | -4.488 | 3.321 | 8.046 | -4.613 | -7.028 |
| 30 | `O=C(CCc1ccsc1)NCC1CCN(C2CC2)C1` (stereo unspecified) | 2.281 | -31.55 | 2.93 | 6.077 | -2.761 | 3.355 |
| 31 | `O=C(c1ccccn1)N1Cc2nccn2CC(CN2CCOCC2)C1` (stereo unspecified) | 7.765 | -4.326 | -0.1287 | 6.011 | 4.314 | 7.595 |
| 32 | `COc1ccccc1CC(=O)N(C)Cc1cc(C)on1` | 1.498 | -30.01 | 0.6369 | 2.762 | -0.7157 | -10.1 |
| 33 | `Cc1nc(O)cc(CCNC(=O)c2ccc(CN3CCCCC3)cc2)n1` | 5.419 | -36.87 | 11.98 | -2.717 | -6.286 | -4.346 |
| 34 | `CC(C)(C)c1noc(CN2CCN(C(=O)c3cccs3)CC2)n1` | 7.941 | -1.1 | -0.7229 | 3.053 | -1.679 | -4.458 |
| 35 | `CS(=O)(=O)N1CC[C@]2(O)CCN(c3cc(C#N)ccn3)C[C@@H]2C1` | 5.867 | 11.21 | 7.485 | 6.173 | -1.891 | -62.4 |
| 36 | `COc1ccc(CN2CCc3ncnc(OC(C)C)c3CC2)cc1` | -8.875 | -15.73 | 1.396 | -13.51 | 2.204 | 12.96 |
| 37 | `Cc1ccccc1-c1cc(NC(=O)NC2CC2)n(CCO)n1` | 3.888 | 1.011 | -1.22 | 2.941 | -0.9029 | -8.255 |
| 38 | `CS(=O)(=O)c1cnc(CC2CC2)nc1C1CCCNC1` (stereo unspecified) | 0.5266 | -32.28 | 1.269 | -2.242 | -0.7101 | 7.05 |
| 39 | `CN(C)C(=O)C1CCN(Cn2ccc(-c3ccc(F)cc3)n2)CC1` | -1.125 | -24.05 | 8.293 | -0.9804 | 3.592 | -1.235 |
| 40 | `CC(=O)c1ccc(C(=O)NCC2Cc3ccccc3O2)s1` (stereo unspecified) | 0.7627 | -22.87 | 3.667 | -2.062 | 5.717 | 8.28 |
| 41 | `CCN(C(=O)c1nc2c(s1)CCCN2Cc1ccccc1)C(C)C` | 3.315 | -37.5 | 12.08 | 22.99 | 2.468 | 0.8899 |
| 42 | `COc1ccc(CC(=O)NC(CC(=O)O)c2ccc(F)cc2)cc1OC` (stereo unspecified) | 5.569 | -28.91 | 5.372 | -10.98 | -9.814 | 7.737 |
| 43 | `Cc1ccc(CN2C[C@H](OCCN(C)C)[C@H]3COC[C@H]32)o1` | 3.041 | 4.295 | 0.6061 | 8.38 | - | -3.405 |
| 44 | `O=C(C(c1ccc(F)cc1)N1CCCCC1)N1CCn2cncc2C1` (stereo unspecified) | 7.654 | -34.65 | 4.959 | 2.89 | -4.686 | -1.72 |
| 45 | `O=C(Nc1cccnc1)[C@H]1C[C@@H]2CN(C(=O)NC3CCCC3)C[C@H]1O2` | 7.626 | -19.61 | 5.398 | 3.867 | -0.7846 | -3.302 |
| 46 | `CC(=O)c1cccc(NC(=O)CN2CCCCC2C)c1` (stereo unspecified) | 10.32 | 46.47 | 6.746 | -15.52 | -0.8895 | 11.26 |
| 47 | `CC(C)N(CCC#N)C(=O)c1cnc(-c2ccc3c(c2)OCO3)s1` | -1.833 | 46.53 | -4.478 | 1.754 | -9.462 | -149.6 |
| 48 | `CCCc1cnc(C)nc1N1CCC(Cn2cc(CN(C)C)nn2)CC1` | 5.157 | -20.68 | 3.947 | 8.155 | 1.098 | -10.77 |

The first 6 entries again:

{"smiles": "COCCOc1ccc(-c2noc([C@@H]3CCCN3)n2)cn1", "PfKRS1": 2.238, "Pks13 thioesterase": -18.08, "CoaBC": 9.255, "TcHisRS": -3.96, "MtTrpRS": 3.087, "ClpP1P2": -1.699}
{"smiles": "CCC(CO)N(Cc1cccnc1)C(=O)c1ccc(C)[nH]c1=O", "stereo": "stereo unspecified", "PfKRS1": 9.779, "Pks13 thioesterase": 1.106, "CoaBC": -3.924, "TcHisRS": 9.756, "MtTrpRS": 0.5439, "ClpP1P2": -12.64}
{"smiles": "O=C1COc2cc(OC[C@@H]3CCCN4CCCC[C@H]34)ccc21", "PfKRS1": -5.946, "Pks13 thioesterase": -5.679, "CoaBC": -8.705, "TcHisRS": 18.4, "MtTrpRS": -1.424, "ClpP1P2": -1.34}
{"smiles": "N#Cc1ccc(C(=O)N(Cc2ccncc2)C2CC2)cc1", "PfKRS1": 5.837, "Pks13 thioesterase": -0.4867, "CoaBC": 1.574, "TcHisRS": -11.88, "MtTrpRS": 0.1555, "ClpP1P2": -4.092}
{"smiles": "CCN(CC)Cc1cc(=O)n2c(n1)CN(C(=O)c1ccc[nH]1)CCC2", "PfKRS1": 1.106, "Pks13 thioesterase": -3.368, "CoaBC": 2.599, "TcHisRS": 1.508, "ClpP1P2": -0.4221}
{"smiles": "O=C(NCc1cn2c(n1)CN(Cc1cccc(F)c1)CC2)C1CCC1", "PfKRS1": 4.019, "Pks13 thioesterase": 3.656, "CoaBC": 3.257, "TcHisRS": 2.941, "MtTrpRS": -1.953, "ClpP1P2": -24.35}

From ChEMBL document CHEMBL3988442, “University of Dundee, Small-Polar-MMV Screening Library” (2021).